Laboratory results from US20130210042A1, “DIAGNOSTIC AND PROGNOSTIC METHOD FOR HUMAN TAUOPATHIES” (CONSIGLIO NAZIONALE DELLE RICERCHE, priority 2010, published 2013).
At least one compound was matched to its structure with a doubt left. Peptide text beside a SMILES is read from it. * marks the point of attachment. Cbz = O=C(OCc1ccccc1)*

System: dbAMPc/NGF-differentiated human SH-SY5Y human neuroblastoma cells
Experiment: Generation of the 20-22 kDa NH2 tau fragment in differentiated SH-SY5Y exposed to soluble AD brain extracts (Western blot)
Type: cell-based
Settings: 100 μM Z-VADfmk or 20 μM MDL28170; 12 h with 1 mg/ml AD brain extract
Description: FIG. 5. The soluble extracts from AD brain homogenates containing Aβ oligomers induce neurotoxicity and production of the NH2-derived 20-22 kDa tau fragment through the caspase-(s) activation in human differentiated SY5Y. A-B): Biochemical characterization of native Aβ oligomers enriched by crude soluble proteins extracts of AD and age-matched non-demented control brain prepared as reported by, which contained almost no Aβ monomers since the ability of these low-molecular weight species to pass readily through the 10 kDa cutoff filters under the conditions used here. Samples extracted from two different AD brain specimens were pooled and retentates—obtained by 10 kDa cutoff filters (Vivaspin 4 VSO403)—were added to the cell culture at a final concentration of 1 mg/ml. […] Unheated samples were applied on the gel in two different lanes and after transfer the membrane was cut in two equal parts and analyzed in parallel. […] Each data point is the mean±SE (bars) of five independent experiments and statistically significant differences were calculated by paired t-Student's test (*p<0.05; ***p<0.001). […] Each data point is the mean±SE (bars) of three independent experiments and statistically significant differences were calculated by paired t-Student's test (*p<0.05; **p<0.01; ***p<0.001). […]

CC(C)[C@H](NC(=O)OCc1ccccc1)C(=O)N[C@H](C=O)Cc1ccccc1 [MDL28170] (Cbz-Val-Phe-aldehyde)
appearance of 20-22 kDa NH2 tau fragment after pre-incubation with protease inhibitor: at less extention
